Experimental data taken from the supplement of paper PMC11732987, “Enantioselective OTUD7B fragment discovery through chemoproteomics screening and high-throughput optimisation” (Communications Chemistry, 2025).
Some of the results follow. The data scatter; read single values as rough.

Sequences of proteins named here, by UniProt entry; tags and fusion partners are left off. A change or cut given only in a name is not applied to a line headed by its entry.
UniProt Q9Y3P9: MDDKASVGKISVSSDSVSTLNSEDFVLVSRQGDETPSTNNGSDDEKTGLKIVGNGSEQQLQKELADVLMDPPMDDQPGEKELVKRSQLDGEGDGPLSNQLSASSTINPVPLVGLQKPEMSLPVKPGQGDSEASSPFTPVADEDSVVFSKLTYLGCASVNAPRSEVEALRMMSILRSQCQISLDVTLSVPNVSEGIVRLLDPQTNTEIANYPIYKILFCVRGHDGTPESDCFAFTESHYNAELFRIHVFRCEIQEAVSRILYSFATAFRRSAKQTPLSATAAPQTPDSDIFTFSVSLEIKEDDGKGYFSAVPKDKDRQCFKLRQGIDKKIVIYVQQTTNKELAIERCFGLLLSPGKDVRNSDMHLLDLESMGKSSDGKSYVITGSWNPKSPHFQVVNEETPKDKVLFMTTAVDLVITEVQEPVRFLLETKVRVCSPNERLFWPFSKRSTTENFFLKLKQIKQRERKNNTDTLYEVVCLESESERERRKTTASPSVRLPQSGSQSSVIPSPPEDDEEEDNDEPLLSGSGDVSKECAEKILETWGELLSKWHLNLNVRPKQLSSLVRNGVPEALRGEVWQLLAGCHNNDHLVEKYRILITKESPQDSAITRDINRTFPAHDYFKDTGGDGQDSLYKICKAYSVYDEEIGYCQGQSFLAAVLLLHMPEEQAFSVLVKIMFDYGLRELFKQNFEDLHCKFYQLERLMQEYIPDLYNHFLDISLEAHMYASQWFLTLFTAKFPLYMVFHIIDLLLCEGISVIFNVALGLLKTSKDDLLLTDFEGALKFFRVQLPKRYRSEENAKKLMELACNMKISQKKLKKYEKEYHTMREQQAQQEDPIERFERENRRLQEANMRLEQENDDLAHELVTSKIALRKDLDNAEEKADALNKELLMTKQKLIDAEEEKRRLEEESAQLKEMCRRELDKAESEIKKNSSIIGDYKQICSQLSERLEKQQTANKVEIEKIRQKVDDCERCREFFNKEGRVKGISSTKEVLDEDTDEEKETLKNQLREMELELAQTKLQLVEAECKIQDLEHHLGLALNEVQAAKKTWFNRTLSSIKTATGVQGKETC
UniProt Q06323: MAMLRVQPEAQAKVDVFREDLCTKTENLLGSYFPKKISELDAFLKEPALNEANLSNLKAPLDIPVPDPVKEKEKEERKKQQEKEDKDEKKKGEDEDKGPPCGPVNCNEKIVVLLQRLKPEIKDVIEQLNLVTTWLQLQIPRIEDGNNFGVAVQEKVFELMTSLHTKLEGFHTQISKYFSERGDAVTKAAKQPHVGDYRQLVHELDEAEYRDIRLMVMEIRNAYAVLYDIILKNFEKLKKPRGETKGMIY
UniProt Q13200: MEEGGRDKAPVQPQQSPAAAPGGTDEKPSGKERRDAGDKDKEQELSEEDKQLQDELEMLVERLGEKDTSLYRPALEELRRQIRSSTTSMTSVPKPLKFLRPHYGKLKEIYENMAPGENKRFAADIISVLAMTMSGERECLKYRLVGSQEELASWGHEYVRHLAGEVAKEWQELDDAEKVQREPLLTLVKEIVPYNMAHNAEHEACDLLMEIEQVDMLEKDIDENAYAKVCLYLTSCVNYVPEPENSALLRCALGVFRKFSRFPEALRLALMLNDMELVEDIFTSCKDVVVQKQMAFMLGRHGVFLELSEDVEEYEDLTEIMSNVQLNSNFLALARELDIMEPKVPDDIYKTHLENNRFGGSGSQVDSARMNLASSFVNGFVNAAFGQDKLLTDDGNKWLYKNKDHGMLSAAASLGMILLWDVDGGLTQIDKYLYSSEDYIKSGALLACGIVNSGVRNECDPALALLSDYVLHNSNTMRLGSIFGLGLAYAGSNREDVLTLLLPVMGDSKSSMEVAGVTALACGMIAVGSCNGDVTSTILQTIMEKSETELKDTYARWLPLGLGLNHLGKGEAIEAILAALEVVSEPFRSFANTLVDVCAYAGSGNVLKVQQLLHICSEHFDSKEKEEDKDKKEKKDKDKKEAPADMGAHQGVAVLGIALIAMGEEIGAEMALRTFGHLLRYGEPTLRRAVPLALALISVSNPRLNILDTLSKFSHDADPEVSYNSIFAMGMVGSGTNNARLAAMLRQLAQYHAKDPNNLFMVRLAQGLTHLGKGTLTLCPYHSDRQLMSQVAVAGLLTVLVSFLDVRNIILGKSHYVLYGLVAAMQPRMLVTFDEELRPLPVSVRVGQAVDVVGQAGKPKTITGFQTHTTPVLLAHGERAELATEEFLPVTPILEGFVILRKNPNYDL
UniProt O95716: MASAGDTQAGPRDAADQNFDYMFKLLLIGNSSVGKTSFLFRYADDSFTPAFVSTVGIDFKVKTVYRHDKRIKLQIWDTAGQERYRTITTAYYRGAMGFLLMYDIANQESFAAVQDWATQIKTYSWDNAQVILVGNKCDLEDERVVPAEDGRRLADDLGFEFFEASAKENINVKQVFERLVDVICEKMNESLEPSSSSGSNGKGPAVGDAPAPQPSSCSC
UniProt Q9UL25: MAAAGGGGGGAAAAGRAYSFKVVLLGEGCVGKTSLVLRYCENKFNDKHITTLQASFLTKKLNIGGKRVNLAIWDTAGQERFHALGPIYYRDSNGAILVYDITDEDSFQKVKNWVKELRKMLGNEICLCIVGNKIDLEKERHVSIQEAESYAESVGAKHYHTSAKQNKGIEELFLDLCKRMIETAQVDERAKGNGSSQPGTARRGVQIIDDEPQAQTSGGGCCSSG
UniProt Q7Z7A4: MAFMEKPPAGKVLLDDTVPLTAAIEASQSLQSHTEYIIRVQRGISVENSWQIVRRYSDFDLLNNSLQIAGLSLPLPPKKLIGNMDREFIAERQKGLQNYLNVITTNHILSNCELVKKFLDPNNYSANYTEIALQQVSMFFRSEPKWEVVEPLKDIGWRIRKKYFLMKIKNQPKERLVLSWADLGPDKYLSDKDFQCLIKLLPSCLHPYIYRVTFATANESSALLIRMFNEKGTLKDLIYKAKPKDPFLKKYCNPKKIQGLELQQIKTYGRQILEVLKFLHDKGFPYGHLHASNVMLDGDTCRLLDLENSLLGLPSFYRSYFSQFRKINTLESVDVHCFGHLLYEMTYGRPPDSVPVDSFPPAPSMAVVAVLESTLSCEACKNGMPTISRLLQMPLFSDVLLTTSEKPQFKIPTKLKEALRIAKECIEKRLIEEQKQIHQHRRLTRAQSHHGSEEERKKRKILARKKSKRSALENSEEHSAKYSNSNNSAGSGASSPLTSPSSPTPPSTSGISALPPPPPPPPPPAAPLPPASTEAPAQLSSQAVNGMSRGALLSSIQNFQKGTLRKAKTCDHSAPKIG
UniProt Q9Y3E5: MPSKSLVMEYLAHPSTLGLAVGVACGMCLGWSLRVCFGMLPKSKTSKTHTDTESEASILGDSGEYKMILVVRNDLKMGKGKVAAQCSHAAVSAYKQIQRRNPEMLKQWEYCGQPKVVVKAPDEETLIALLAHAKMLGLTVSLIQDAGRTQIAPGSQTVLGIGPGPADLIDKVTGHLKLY
UniProt P20338: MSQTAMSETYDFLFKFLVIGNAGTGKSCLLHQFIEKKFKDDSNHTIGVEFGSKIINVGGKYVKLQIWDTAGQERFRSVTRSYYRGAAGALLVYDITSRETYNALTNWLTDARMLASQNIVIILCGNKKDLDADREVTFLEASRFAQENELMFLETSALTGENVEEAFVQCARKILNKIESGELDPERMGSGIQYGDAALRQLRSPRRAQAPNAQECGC
UniProt A2A3K4: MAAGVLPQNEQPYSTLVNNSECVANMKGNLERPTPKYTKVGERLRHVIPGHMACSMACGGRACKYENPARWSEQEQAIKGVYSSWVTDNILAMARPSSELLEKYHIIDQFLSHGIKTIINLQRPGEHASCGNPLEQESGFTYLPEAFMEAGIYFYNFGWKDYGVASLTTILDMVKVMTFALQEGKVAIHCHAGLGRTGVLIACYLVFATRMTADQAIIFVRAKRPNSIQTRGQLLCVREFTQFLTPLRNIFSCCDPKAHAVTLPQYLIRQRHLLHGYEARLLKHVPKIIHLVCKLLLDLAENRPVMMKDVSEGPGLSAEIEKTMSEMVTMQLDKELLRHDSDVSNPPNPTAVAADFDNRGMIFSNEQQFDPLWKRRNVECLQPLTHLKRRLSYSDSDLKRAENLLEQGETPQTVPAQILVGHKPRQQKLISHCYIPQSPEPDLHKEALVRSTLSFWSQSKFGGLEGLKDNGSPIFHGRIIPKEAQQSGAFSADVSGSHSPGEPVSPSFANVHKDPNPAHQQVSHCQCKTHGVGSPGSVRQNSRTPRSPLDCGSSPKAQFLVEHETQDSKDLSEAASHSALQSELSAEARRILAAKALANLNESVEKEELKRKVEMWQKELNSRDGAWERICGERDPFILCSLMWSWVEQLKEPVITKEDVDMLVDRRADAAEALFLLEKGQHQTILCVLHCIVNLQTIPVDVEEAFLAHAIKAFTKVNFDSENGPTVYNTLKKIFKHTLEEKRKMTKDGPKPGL

compound: ClCC(=O)N[C@@H]1CCCc2ccccc12; assay: log2 mean competition ratio of IA-DTB cysteine labelling (DMSO/compound) (log2 ratio); higher = stronger cysteine engagement by compound; details: 50 µM; treatment time: 4 h; cell line lysate: HEK293T
Description: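 IA-DTB competitive cysteine chemoproteomics in HEK293T RIPA lysate. Lysates were treated with compound 29 or 30 at 50 or 200 µM for 4 h, then IA-DTB (500 µM, 1 h), trypsin-digested, NeutrAvidin-enriched and analysed by diaPASEF. Competition ratio = intensity DMSO / intensity compound (n=4 treated, n=64 DMSO); binding: mean log2 CR ≥ 1 and p ≤ 0.05 plus QC filters. Target is the cysteine site.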

**Q.** How did the “log2 mean competition ratio” value turn out when RABGAP1 C969 (UniProt Q9Y3P9) was run?
**A.** -0.0682

**Q.** RABGAP1 C155 (UniProt Q9Y3P9) was tested. Which “log2 mean competition ratio” value did it give?
**A.** 0.446

**Q.** How did the “log2 mean competition ratio” value turn out when “PSME1_(C101,C101,C106,C106) (UniProt Q06323)” was run?
**A.** 0.148

**Q.** With RAC1 C6 (UniProt P63000) as the target, how does the “log2 mean competition ratio” value read?
**A.** -0.0852

**Q.** RAB12 C159 was tested. Which “log2 mean competition ratio” value did it give?
**A.** 0.0453

**Q.** PTGIS C231 was tested. Which “log2 mean competition ratio” value did it give?
**A.** -0.0821

**Q.** With PRRC2B C726 as the target, how does the “log2 mean competition ratio” value read?
**A.** 0.357

**Q.** PSMD2 C779 (UniProt Q13200) was tested. Which “log2 mean competition ratio” value did it give?
**A.** 0.0883

**Q.** For RAB3D C184 (UniProt O95716), which “log2 mean competition ratio” value is on record?
**A.** -0.267

**Q.** With PRRC2B C1212 as the target, how does the “log2 mean competition ratio” value read?
**A.** 0.256

**Q.** For RAB21 C40 (UniProt Q9UL25), which “log2 mean competition ratio” value is on record?
**A.** 0.13

**Q.** With PXK C196 (UniProt Q7Z7A4) as the target, how does the “log2 mean competition ratio” value read?
**A.** 0.122

**Q.** PTRH2 C111 (UniProt Q9Y3E5) was tested. Which “log2 mean competition ratio” value did it give?
**A.** -0.207

**Q.** For RAB4A C28 (UniProt P20338), which “log2 mean competition ratio” value is on record?
**A.** -0.182

same assay, conditions: 200 µM; treatment time: 4 h; cell line lysate: HEK293T

**Q.** Which “log2 mean competition ratio” value does the source give for RABGAP1 C969 (UniProt Q9Y3P9) here?
**A.** -0.0151

**Q.** Which “log2 mean competition ratio” value does the source give for RABGAP1 C155 (UniProt Q9Y3P9) here?
**A.** 0.315

**Q.** Which “log2 mean competition ratio” value does the source give for “PSME1_(C101,C101,C106,C106) (UniProt Q06323)” here?
**A.** -0.303

**Q.** For RAC1 C6 (UniProt P63000), which “log2 mean competition ratio” value is on record?
**A.** -0.0253

**Q.** With RAB12 C159 as the target, how does the “log2 mean competition ratio” value read?
**A.** 0.0274

**Q.** How did the “log2 mean competition ratio” value turn out when PTPDC1 C380 (UniProt A2A3K4) was run?
**A.** 0.672

**Q.** How did the “log2 mean competition ratio” value turn out when PTGIS C231 was run?
**A.** -0.169

**Q.** PRRC2B C726 was tested. Which “log2 mean competition ratio” value did it give?
**A.** 0.07

**Q.** How did the “log2 mean competition ratio” value turn out when PSMD2 C779 (UniProt Q13200) was run?
**A.** -0.0617

**Q.** Which “log2 mean competition ratio” value does the source give for RAB3D C184 (UniProt O95716) here?
**A.** -0.0536

**Q.** PRRC2B C1212 was tested. Which “log2 mean competition ratio” value did it give?
**A.** 0.419

**Q.** Which “log2 mean competition ratio” value does the source give for RAB21 C40 (UniProt Q9UL25) here?
**A.** -0.149

**Q.** For PXK C196 (UniProt Q7Z7A4), which “log2 mean competition ratio” value is on record?
**A.** -0.209

**Q.** With PTRH2 C111 (UniProt Q9Y3E5) as the target, how does the “log2 mean competition ratio” value read?
**A.** -0.0334

**Q.** For RAB4A C28 (UniProt P20338), which “log2 mean competition ratio” value is on record?
**A.** 0.451
